Results as given in article PMC12973532.

Amino acid sequences for entries named in this document (tags omitted).
UniProt O00264: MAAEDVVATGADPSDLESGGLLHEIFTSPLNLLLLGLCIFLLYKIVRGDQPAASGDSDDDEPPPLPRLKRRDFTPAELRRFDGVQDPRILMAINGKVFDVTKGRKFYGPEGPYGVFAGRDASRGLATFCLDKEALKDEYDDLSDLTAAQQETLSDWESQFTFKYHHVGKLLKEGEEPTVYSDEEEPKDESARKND

Legend:
[1] = target: FLAG-tagged PGRMC1 (human progesterone receptor membrane component 1) (human) (UniProt O00264); assay: affinity purification with mass spectrometry; FLAG-PGRMC1 stably expressed in HepG2 cells as bait; isolated mitochondria lysed, affinity purification by FLAG; prey filtered with CRAPome, fold-change threshold 1.5; empty-vector cells as control
[2] = target: FLAG-tagged PGRMC1 (human progesterone receptor membrane component 1) (human) (UniProt O00264); assay: affinity purification with mass spectrometry; FLAG-PGRMC1 stably expressed in HEK293T cells as bait; isolated mitochondria lysed, affinity purification by FLAG; prey filtered with CRAPome, fold-change threshold 2; empty-vector cells as control

B1: DDOST (human) (protein, UniProt P39656 43-456)
chain: SGPRTLVLLDNLNVRETHSLFFRSLKDRGFELTFKTADDPSLSLIKYGEFLYDNLIIFSPSVEDFGGNINVETISAFIDGGGSVLVAASSDIGDPLRELGSECGIEFDEEKTAVIDHHNYDISDLGQHTLIVADTENLLKAPTIVGKSSLNPILFRGVGMVADPDNPLVLDILTGSSTSYSFFPDKPITQYPHAVGKNTLLIAGLQARNNARVIFSGSLDFFSDSFFNSAVQKAAPGSQRYSQTGNYELAVALSRWVFKEEGVLRVGPVSHHRVGETAPPNAYTVTDLVEYSIVIQQLSNGKWVPFDGDDIQLEFVRIDPFVRTFLKKKGGKYSVQFKLPDVYGVFQFKVDYNRLGYTHLYSSTQVSVRPLQHTQYERFIPSAYPYYASAFSMMLGLFIFSIVFLHMKEKEKSD
B1 was tested, and the binding [1] was “binds” and the binding [2] was “binds”.

B2: SLC25A11 (human) (protein, UniProt Q02978 1-314)
chain: MAATASAGAGGIDGKPRTSPKSVKFLFGGLAGMGATVFVQPLDLVKNRMQLSGEGAKTREYKTSFHALTSILKAEGLRGIYTGLSAGLLRQATYTTTRLGIYTVLFERLTGADGTPPGFLLKAVIGMTAGATGAFVGTPAEVALIRMTADGRLPADQRRGYKNVFNALIRITREEGVLTLWRGCIPTMARAVVVNAAQLASYSQSKQFLLDSGYFSDNILCHFCASMISGLVTTAASMPVDIAKTRIQNMRMIDGKPEYKNGLDVLFKVVRYEGFFSLWKGFTPYYARLGPHTVLTFIFLEQMNKAYKRLFLSG
With B2 the binding [1] was “binds” and the binding [2] was “binds”.

B3: CISD2 (human) (protein, UniProt Q8N5K1 1-135)
chain: MVLESVARIVKVQLPAYLKRLPVPESITGFARLTVSEWLRLLPFLGVLALLGYLAVRPFLPKKKQQKDSLINLKIQKENPKVVNEINIEDLCLTKAAYCRCWRSKTFPACDGSHNKHNELTGDNVGPLILKKKEV
For B3, the binding [1] was “binds” and the binding [2] was “binds”.

B4: ABCB10 (human) (protein, UniProt Q9NRK6 106-738)
chain: AGPGAPRLPRARFPGGPAAAAWAGDEAWRRGPAAPPGDKGRLRPAAAGLPEARKLLGLAYPERRRLAAAVGFLTMSSVISMSAPFFLGKIIDVIYTNPTVDYSDNLTRLCLGLSAVFLCGAAANAIRVYLMQTSGQRIVNRLRTSLFSSILRQEVAFFDKTRTGELINRLSSDTALLGRSVTENLSDGLRAGAQASVGISMMFFVSPNLATFVLSVVPPVSIIAVIYGRYLRKLTKVTQDSLAQATQLAEERIGNVRTVRAFGKEMTEIEKYASKVDHVMQLARKEAFARAGFFGATGLSGNLIVLSVLYKGGLLMGSAHMTVGELSSFLMYAFWVGISIGGLSSFYSELMKGLGAGGRLWELLEREPKLPFNEGVILNEKSFQGALEFKNVHFAYPARPEVPIFQDFSLSIPSGSVTALVGPSGSGKSTVLSLLLRLYDPASGTISLDGHDIRQLNPVWLRSKIGTVSQEPILFSCSIAENIAYGADDPSSVTAEEIQRVAEVANAVAFIRNFPQGFNTVVGEKGVLLSGGQKQRIAIARALLKNPKILLLDEATSALDAENEYLVQEALDRLMDGRTVLVIAHRLSTIKNANMVAVLDQGKITEYGKHEELLSKPNGIYRKLMNKQSFISA
For B4, the binding [1] was “binds” and the binding [2] was “binds”.

B5: DNAJC11 (human) (protein, UniProt Q9NVH1 1-559)
chain: MATALSEEELDNEDYYSLLNVRREASSEELKAAYRRLCMLYHPDKHRDPELKSQAERLFNLVHQAYEVLSDPQTRAIYDIYGKRGLEMEGWEVVERRRTPAEIREEFERLQREREERRLQQRTNPKGTISVGVDATDLFDRYDEEYEDVSGSSFPQIEINKMHISQSIEAPLTATDTAILSGSLSTQNGNGGGSINFALRRVTSAKGWGELEFGAGDLQGPLFGLKLFRNLTPRCFVTTNCALQFSSRGIRPGLTTVLARNLDKNTVGYLQWRWGIQSAMNTSIVRDTKTSHFTVALQLGIPHSFALISYQHKFQDDDQTRVKGSLKAGFFGTVVEYGAERKISRHSVLGAAVSVGVPQGVSLKVKLNRASQTYFFPIHLTDQLLPSAMFYATVGPLVVYFAMHRLIIKPYLRAQKEKELEKQRESAATDVLQKKQEAESAVRLMQESVRRIIEAEESRMGLIIVNAWYGKFVNDKSRKSEKVKVIDVTVPLQCLVKDSKLILTEASKAGLPGFYDPCVGEEKNLKVLYQFRGVLHQVMVLDSEALRIPKQSHRIDTDG
For B5, the binding [1] was “binds” and the binding [2] was “binds”.

B6: HM13 (human) (protein, UniProt Q8TCT9 1-377)
chain: MDSALSDPHNGSAEAGGPTNSTTRPPSTPEGIALAYGSLLLMALLPIFFGALRSVRCARGKNASDMPETITSRDAARFPIIASCTLLGLYLFFKIFSQEYINLLLSMYFFVLGILALSHTISPFMNKFFPASFPNRQYQLLFTQGSGENKEEIINYEFDTKDLVCLGLSSIVGVWYLLRKHWIANNLFGLAFSLNGVELLHLNNVSTGCILLGGLFIYDVFWVFGTNVMVTVAKSFEAPIKLVFPQDLLEKGLEANNFAMLGLGDVVIPGIFIALLLRFDISLKKNTHTYFYTSFAAYIFGLGLTIFIMHIFKHAQPALLYLVPACIGFPVLVALAKGEVTEMFSYEESNPKDPAAVTESKEGTEASASKGLEKKEK
With B6 the binding [1] was “binds” and the binding [2] was “binds”.

B7: heme oxygenase 2 (human) (protein, UniProt P30519 1-316)
chain: MSAEVETSEGVDESEKKNSGALEKENQMRMADLSELLKEGTKEAHDRAENTQFVKDFLKGNIKKELFKLATTALYFTYSALEEEMERNKDHPAFAPLYFPMELHRKEALTKDMEYFFGENWEEQVQCPKAAQKYVERIHYIGQNEPELLVAHAYTRYMGDLSGGQVLKKVAQRALKLPSTGEGTQFYLFENVDNAQQFKQLYRARMNALDLNMKTKERIVEEANKAFEYNMQIFNELDQAGSTLARETLEDGFPVHDGKGDMRKCPFYAAEQDKGALEGSSCPFRTAMAVLRKPSLQFILAAGVALAAGLLAWYYM
For B7, the binding [1] was “binds” and the binding [2] was “binds”.

B8: MBOAT7 (human) (protein, UniProt Q96N66 1-472)
chain: MSPEEWTYLVVLLISIPIGFLFKKAGPGLKRWGAAAVGLGLTLFTCGPHTLHSLVTILGTWALIQAQPCSCHALALAWTFSYLLFFRALSLLGLPTPTPFTNAVQLLLTLKLVSLASEVQDLHLAQRKEMASGFSKGPTLGLLPDVPSLMETLSYSYCYVGIMTGPFFRYRTYLDWLEQPFPGAVPSLRPLLRRAWPAPLFGLLFLLSSHLFPLEAVREDAFYARPLPARLFYMIPVFFAFRMRFYVAWIAAECGCIAAGFGAYPVAAKARAGGGPTLQCPPPSSPEKAASLEYDYETIRNIDCYSTDFCVRVRDGMRYWNMTVQWWLAQYIYKSAPARSYVLRSAWTMLLSAYWHGLHPGYYLSFLTIPLCLAAEGRLESALRGRLSPGGQKAWDWVHWFLKMRAYDYMCMGFVLLSLADTLRYWASIYFCIHFLALAALGLGLALGGGSPSRRKAASQPTSLAPEKLREE
In the case of B8, the binding [1] is reported as “binds” and the binding [2] is reported as “binds”.

B9: MFRN2 (human) (protein, UniProt Q96A46 1-364)
chain: MELEGRGAGGVAGGPAAGPGRSPGESALLDGWLQRGVGRGAGGGEAGACRPPVRQDPDSGPDYEALPAGATVTTHMVAGAVAGILEHCVMYPIDCVKTRMQSLQPDPAARYRNVLEALWRIIRTEGLWRPMRGLNVTATGAGPAHALYFACYEKLKKTLSDVIHPGGNSHIANGAAGCVATLLHDAAMNPAEVVKQRMQMYNSPYHRVTDCVRAVWQNEGAGAFYRSYTTQLTMNVPFQAIHFMTYEFLQEHFNPQRRYNPSSHVLSGACAGAVAAAATTPLDVCKTLLNTQESLALNSHITGHITGMASAFRTVYQVGGVTAYFRGVQARVIYQIPSTAIAWSVYEFFKYLITKRQEEWRAGK
B9 was tested, and the binding [1] was “binds” and the binding [2] was “binds”.

B10: progesterone receptor membrane protein 2 (human) (protein, UniProt O15173 1-223)
chain: MAAGDGDVKLGTLGSGSESSNDGGSESPGDAGAAAEGGGWAAAALALLTGGGEMLLNVALVALVLLGAYRLWVRWGRRGLGAGAGAGEESPATSLPRMKKRDFSLEQLRQYDGSRNPRILLAVNGKVFDVTKGSKFYGPAGPYGIFAGRDASRGLATFCLDKDALRDEYDDLSDLNAVQMESVREWEMQFKEKYDYVGRLLKPGEEPSEYTDEEDTKDHNKQD
With B10 the binding [1] was “binds” and the binding [2] was “binds”.

B11: SAMM50 (human) (protein, UniProt Q9Y512 1-469)
chain: MGTVHARSLEPLPSSGPDFGGLGEEAEFVEVEPEAKQEILENKDVVVQHVHFDGLGRTKDDIIICEIGDVFKAKNLIEVMRKSHEAREKLLRLGIFRQVDVLIDTCQGDDALPNGLDVTFEVTELRRLTGSYNTMVGNNEGSMVLGLKLPNLLGRAEKVTFQFSYGTKETSYGLSFFKPRPGNFERNFSVNLYKVTGQFPWSSLRETDRGMSAEYSFPIWKTSHTVKWEGVWRELGCLSRTASFAVRKESGHSLKSSLSHAMVIDSRNSSILPRRGALLKVNQELAGYTGGDVSFIKEDFELQLNKQLIFDSVFSASFWGGMLVPIGDKPSSIADRFYLGGPTSIRGFSMHSIGPQSEGDYLGGEAYWAGGLHLYTPLPFRPGQGGFGELFRTHFFLNAGNLCNLNYGEGPKAHIRKLAECIRWSYGAGIVLRLGNIARLELNYCVPMGVQTGDRICDGVQFGAGIRFL
With B11 the binding [1] was “binds” and the binding [2] was “binds”.

B12: ABCD3 (human) (protein, UniProt P28288 1-659)
chain: MAAFSKYLTARNSSLAGAAFLLLCLLHKRRRALGLHGKKSGKPPLQNNEKEGKKERAVVDKVFFSRLIQILKIMVPRTFCKETGYLVLIAVMLVSRTYCDVWMIQNGTLIESGIIGRSRKDFKRYLLNFIAAMPLISLVNNFLKYGLNELKLCFRVRLTKYLYEEYLQAFTYYKMGNLDNRIANPDQLLTQDVEKFCNSVVDLYSNLSKPFLDIVLYIFKLTSAIGAQGPASMMAYLVVSGLFLTRLRRPIGKMTITEQKYEGEYRYVNSRLITNSEEIAFYNGNKREKQTVHSVFRKLVEHLHNFILFRFSMGFIDSIIAKYLATVVGYLVVSRPFLDLSHPRHLKSTHSELLEDYYQSGRMLLRMSQALGRIVLAGREMTRLAGFTARITELMQVLKDLNHGKYERTMVSQQEKGIEGVQVIPLIPGAGEIIIADNIIKFDHVPLATPNGDVLIRDLNFEVRSGANVLICGPNGCGKSSLFRVLGELWPLFGGRLTKPERGKLFYVPQRPYMTLGTLRDQVIYPDGREDQKRKGISDLVLKEYLDNVQLGHILEREGGWDSVQDWMDVLSGGEKQRMAMARLFYHKPQFAILDECTSAVSVDVEGYIYSHCRKVGITLFTVSHRKSLWKHHEYYLHMDGRGNYEFKQITEDTVEFGS
For B12, the binding [1] was “binds” and the binding [2] was “binds”.

No constants are given. Whether binding was seen depends on the method and setting. In cells and extracts the contact can be indirect. Here binding means that the protein was enriched with, or labelled near, the bait; the list need not be complete.
